Data as given in PubChem BioAssay AID652243 (Drosophila RNAi Screening Center, 2013).
Test: 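Knock-downs that decrease or increase androgen receptor reporter signal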 (primary screen). System: Drosophila S2R+ cells. Knock-down reagent: long dsRNA against Drosophila genes. Duration: 72 h (48 h, then 24 h hormone). Challenge: synthetic androgen R1881 at 10 nM for 24 h. Measurement: 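Firefly light from an androgen-responsive reporter and Renilla control light per well, raw and unnormalised, for each of two replicates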. Direction: firefly reporter light: higher = more light from androgen-responsive reporter; Renilla control light: higher = more constitutive control signal (cell number, transfection). Active means: 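Hit when the log firefly-to-Renilla ratio dropped or increased by a fixed fold versus the mean of GFP or LacZ controls across duplicate plates; lowering cut given as 1.5 and as 3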. Meaning of the calls: active = hit: reporter lowered or raised; inactive = no hit.
The screen tested about 24,000 reagents; this is a random part of those that have a named target and a result. Of all reagents, 246 (1%) are marked active. 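Plates not normalised; calls are printed but the firefly/Renilla ratio behind them is not deposited; fold cut for lowering reported inconsistently.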 Raw values vary from plate to plate and are shown uncorrected. Names joined by + are all predicted targets of the reagent. Reagent sequences are not shown. Not stated in the record: the amount of reagent.

The first 8 records, to show the layout:
| target gene | DRSC id | firefly reporter light, replicate 1 | firefly reporter light, replicate 2 | Renilla control light, replicate 1 | Renilla control light, replicate 2 | call |
| --- | --- | --- | --- | --- | --- | --- |
| Ube3a (GeneID 39266) | DRSC10600 | 5.72e5 | 4.96e5 | 1.62e6 | 1.83e6 | inactive |
| ena (GeneID 37201) | DRSC05779 | 2.04e5 | 72746 | 3.54e5 | 2.91e5 | inactive |
| ena (GeneID 37201) | DRSC07610 | 1.01e6 | 7.89e5 | 1.49e6 | 1.03e6 | inactive |
| ena (GeneID 37201) | DRSC25393 | 7.07e5 | 6.46e5 | 5.75e5 | 4.07e5 | inactive |
| lncRNA:CR43242 (GeneID 12798537) | DRSC03827 | 3.92e5 | 3.35e5 | 2.36e6 | 1.85e6 | inactive |
| CG4849 (GeneID 43358) | DRSC15662 | 1.47e5 | 79874 | 7.27e5 | 5.30e5 | inactive |
| CG4849 (GeneID 43358) | DRSC27175 | 4.00e5 | 3.68e5 | 5.04e5 | 4.95e5 | inactive |
| alpha-Est3 (GeneID 40907) | DRSC12615 | 22116 | 42762 | 2.98e5 | 3.03e5 | inactive |

The listing, repeating the preview:
| target gene | DRSC id | firefly reporter light, replicate 1 | firefly reporter light, replicate 2 | Renilla control light, replicate 1 | Renilla control light, replicate 2 | call |
| --- | --- | --- | --- | --- | --- | --- |
| Ube3a (GeneID 39266) | DRSC10600 | 5.72e5 | 4.96e5 | 1.62e6 | 1.83e6 | inactive |
| ena (GeneID 37201) | DRSC05779 | 2.04e5 | 72746 | 3.54e5 | 2.91e5 | inactive |
| ena (GeneID 37201) | DRSC07610 | 1.01e6 | 7.89e5 | 1.49e6 | 1.03e6 | inactive |
| ena (GeneID 37201) | DRSC25393 | 7.07e5 | 6.46e5 | 5.75e5 | 4.07e5 | inactive |
| lncRNA:CR43242 (GeneID 12798537) | DRSC03827 | 3.92e5 | 3.35e5 | 2.36e6 | 1.85e6 | inactive |
| CG4849 (GeneID 43358) | DRSC15662 | 1.47e5 | 79874 | 7.27e5 | 5.30e5 | inactive |
| CG4849 (GeneID 43358) | DRSC27175 | 4.00e5 | 3.68e5 | 5.04e5 | 4.95e5 | inactive |
| alpha-Est3 (GeneID 40907) | DRSC12615 | 22116 | 42762 | 2.98e5 | 3.03e5 | inactive |
| CG10984 (GeneID 39446) | DRSC09817 | 1.15e6 | 9.14e5 | 1.46e6 | 1.76e6 | inactive |
| CG10984 (GeneID 39446) | DRSC28387 | 4.44e5 | 1.01e6 | 1.16e6 | 1.64e6 | inactive |
| Unc-115b + p24-2 + Unc-115a | DRSC16502 | 1.63e5 | 1.28e5 | 2.01e6 | 2.27e6 | inactive |
| COX7B (GeneID 50266) | DRSC10895 | 2.35e5 | 2.63e5 | 2.20e6 | 1.85e6 | inactive |
| Gmppb (GeneID 40599) | DRSC12169 | 53155 | 49623 | 4.73e5 | 2.88e5 | inactive |
| scaf (GeneID 35505) | DRSC04849 | 8.54e5 | 9.52e5 | 1.12e6 | 1.81e6 | inactive |
| Set2 (GeneID 32301) | DRSC19765 | 83483 | 69553 | 5.94e5 | 5.55e5 | inactive |
| Jhe (GeneID 36780) | DRSC07174 | 50415 | 50987 | 1.11e6 | 1.11e6 | inactive |
| Jhe (GeneID 36780) | DRSC29206 | 9.46e5 | 8.68e5 | 1.36e6 | 1.49e6 | inactive |
| papi (GeneID 33401) | DRSC00693 | 8.99e5 | 9.71e5 | 4.38e6 | 1.84e6 | inactive |
| Sil1 (GeneID 43034) | DRSC14242 | 82020 | 25645 | 5.12e5 | 2.44e5 | inactive |
| Magi (GeneID 37403) | DRSC04247 | 6.22e5 | 5.55e5 | 1.82e6 | 1.91e6 | inactive |
| Magi (GeneID 37403) | DRSC04451 | 3.03e5 | 1.63e5 | 1.96e6 | 8.68e5 | inactive |
| Magi (GeneID 37403) | DRSC26209 | 3.46e5 | 3.57e5 | 5.88e5 | 6.57e5 | inactive |
| Art9 (GeneID 41698) | DRSC16584 | 1.50e5 | 1.67e5 | 2.39e6 | 2.83e6 | inactive |
| fd3F + CR42499 | DRSC18160 | 2.18e5 | 3.18e5 | 2.47e6 | 3.03e6 | inactive |
| fd3F + CR42499 | DRSC18161 | 91988 | 99070 | 1.26e6 | 1.65e6 | inactive |
| fd3F + CR42499 | DRSC28554 | 4.36e5 | 6.78e5 | 8.58e5 | 1.26e6 | inactive |
| Mes2 (GeneID 40514) | DRSC11593 | 2.03e5 | 97048 | 3.27e5 | 1.69e5 | inactive |
| Mes2 (GeneID 40514) | DRSC11632 | 1.65e5 | 2.32e5 | 8.00e5 | 9.49e5 | inactive |
| CG4702 (GeneID 41472) | DRSC15626 | 87012 | 81610 | 7.20e5 | 6.69e5 | inactive |
| CG1801 (GeneID 33104) | DRSC20556 | 1.08e5 | 37714 | 4.90e5 | 2.55e5 | inactive |
| CG15252 (GeneID 31931) | DRSC17981 | 1.50e5 | 1.76e5 | 1.93e6 | 1.80e6 | inactive |
| CG15252 (GeneID 31931) | DRSC29645 | 6.14e5 | 5.58e5 | 8.85e5 | 8.85e5 | inactive |
| CG10616 (GeneID 39420) | DRSC09750 | 1.14e6 | 5.85e5 | 1.66e6 | 1.11e6 | inactive |
| Pus7 (GeneID 38969) | DRSC10703 | 1.40e5 | 1.70e5 | 1.84e6 | 1.70e6 | inactive |
| Pus7 (GeneID 38969) | DRSC27484 | 2.08e5 | 2.62e5 | 4.15e5 | 6.30e5 | inactive |
| wech (GeneID 44653) | DRSC06606 | 1.05e6 | 9.97e5 | 2.03e6 | 2.17e6 | inactive |
| ari-2 (GeneID 37542) | DRSC04672 | 2.07e5 | 2.66e5 | 1.89e6 | 1.18e6 | inactive |
| ari-2 (GeneID 37542) | DRSC27896 | 5.56e5 | 3.90e5 | 1.95e6 | 1.41e6 | inactive |
| Cypl (GeneID 38069) | DRSC08362 | 1.14e5 | 1.22e5 | 1.43e6 | 1.77e6 | inactive |
| Cypl (GeneID 38069) | DRSC25421 | 5.96e5 | 6.52e5 | 5.62e5 | 5.43e5 | inactive |
| insv (GeneID 33441) | DRSC00579 | 1.37e5 | 1.11e5 | 7.59e5 | 1.09e6 | inactive |
| insv (GeneID 33441) | DRSC28219 | 5.25e5 | 7.34e5 | 1.12e6 | 1.70e6 | inactive |
| Cyp4aa1 (GeneID 36752) | DRSC07368 | 58555 | 44502 | 9.80e5 | 9.80e5 | inactive |
| Cyp4aa1 (GeneID 36752) | DRSC27648 | 2.98e5 | 2.56e5 | 7.18e5 | 6.97e5 | inactive |
| CG30467 (GeneID 36719) | DRSC07097 | 92871 | 1.01e5 | 1.36e6 | 1.36e6 | inactive |
| CG42633 (GeneID 8674052) | DRSC16061 | 1.50e5 | 1.33e5 | 2.87e6 | 1.58e6 | inactive |
| PRL-1 (GeneID 34952) | DRSC03393 | 1.90e5 | 2.44e5 | 2.53e6 | 3.01e6 | inactive |
| PRL-1 (GeneID 34952) | DRSC27332 | 2.25e5 | 2.06e5 | 6.39e5 | 5.89e5 | inactive |
| PRL-1 (GeneID 34952) | DRSC37036 | – | – | – | – | inactive |
| CG11529 (GeneID 39395) | DRSC09839 | 1.50e5 | 79406 | 1.70e6 | 1.54e6 | inactive |
| rux (GeneID 31535) | DRSC18829 | 1.31e5 | 1.08e5 | 7.55e5 | 5.26e5 | inactive |
| CG34304 (retired record) (GeneID 5740404) | DRSC38821 | 9.54e5 | 8.19e5 | 2.00e6 | 1.64e6 | inactive |
| Ref1 (GeneID 44029) | DRSC12497 | 2.06e5 | 1.84e5 | 2.01e6 | 2.18e6 | inactive |
| Ref1 (GeneID 44029) | DRSC22387 | 4.15e5 | 5.07e5 | 1.66e6 | 1.96e6 | inactive |
| CG34331 (GeneID 33011) | DRSC20679 | 1.62e5 | 1.61e5 | 5.79e5 | 4.79e5 | inactive |
| CG12679 (GeneID 33031) | DRSC20493 | 3.45e5 | 1.70e5 | 1.08e6 | 5.09e5 | inactive |
| CG12679 (GeneID 33031) | DRSC29589 | 3.96e5 | 5.80e5 | 1.72e6 | 1.72e6 | inactive |
| CG5883 (GeneID 39352) | DRSC10552 | 1.52e5 | 1.73e5 | 1.19e6 | 7.96e5 | inactive |
| ACXA (GeneID 53432) | DRSC00844 | 1.95e5 | 3.10e5 | 1.77e6 | 1.57e6 | inactive |
| ACXA (GeneID 53432) | DRSC25338 | 1.12e6 | 9.58e5 | 1.37e6 | 1.15e6 | inactive |
| CG13028 (GeneID 2768967) | DRSC09908 | 3.35e5 | 3.18e5 | 3.42e6 | 2.66e6 | inactive |
| SERCA (GeneID 49297) | DRSC04600 | 6.46e5 | 4.29e5 | 1.29e6 | 1.25e6 | inactive |
| SERCA (GeneID 49297) | DRSC26195 | 3.02e5 | 3.27e5 | 5.76e5 | 4.57e5 | inactive |
| CG31821 (GeneID 34938) | DRSC22162 | 8.23e5 | 6.09e5 | 2.17e6 | 1.58e6 | inactive |
| SerRS (GeneID 33518) | DRSC00496 | 8.23e5 | 6.15e5 | 2.95e6 | 2.13e6 | inactive |
| CG10638 (GeneID 39424) | DRSC09762 | 1.78e5 | 1.24e5 | 1.79e6 | 1.57e6 | inactive |
| CG10638 (GeneID 39424) | DRSC29762 | 6.19e5 | 5.46e5 | 1.38e6 | 1.56e6 | inactive |
| Rnmt (GeneID 34877) | DRSC03558 | 1.91e5 | 2.05e5 | 2.22e6 | 2.57e6 | inactive |
| CG5653 (GeneID 39024) | DRSC10534 | 1.70e5 | 1.49e5 | 1.99e6 | 1.44e6 | inactive |
| CG5653 (GeneID 39024) | DRSC29858 | 5.77e5 | 4.32e5 | 1.08e6 | 1.56e6 | inactive |
| Orc4 (GeneID 37970) | DRSC04634 | 9.97e5 | 5.51e5 | 1.23e6 | 1.07e6 | inactive |
| Orc4 (GeneID 37970) | DRSC29134 | 5.46e5 | 6.93e5 | 1.29e6 | 1.47e6 | inactive |
| CG14086 (GeneID 40100) | DRSC10090 | 2.88e5 | 2.80e5 | 2.00e6 | 2.92e6 | inactive |
| CG6465 (GeneID 41274) | DRSC16046 | 61308 | 72931 | 4.78e5 | 5.42e5 | inactive |
| CG6465 (GeneID 41274) | DRSC25671 | 1.56e6 | 1.16e6 | 1.06e6 | 1.07e6 | inactive |
